Results are given in words; binding and its absence hold for the method and conditions named. For some assays here: Binding seen in cells or lysates may run through a third protein. Some results given as binding are weak or reduced against the parent protein; the word gives no strength.
How the values were obtained:
[1] = biological target: T1, collagen VI-containing suprastructures, endogenous in human articular cartilage (human (endogenous in articular cartilage)) (UniProt P12109+P12110+P12111); assay: immunobead isolation of suprastructures with immuno-gold electron microscopy; collagen VI suprastructures isolated from human articular cartilage extracts with immunobeads coupled to collagen VI antibodies, then doubly immuno-labeled for WARP (18-nm gold) and collagen VI (small gold)
[2] = biological target: T1, collagen VI-containing suprastructures, endogenous in human articular cartilage (human (endogenous in articular cartilage)); assay: co-IP; collagen VI suprastructures isolated from human articular cartilage extracts with superparamagnetic immunobeads coupled to anti-collagen VI (AF 6210); bead pellet, supernatant and crude extract immunoblotted for WARP and collagen VI under reducing conditions

Chains of the proteins cited; added tags and fusions are not shown. Lines headed by an entry give the natural chain unless they say otherwise; changes in a name come on top.
UniProt P12109: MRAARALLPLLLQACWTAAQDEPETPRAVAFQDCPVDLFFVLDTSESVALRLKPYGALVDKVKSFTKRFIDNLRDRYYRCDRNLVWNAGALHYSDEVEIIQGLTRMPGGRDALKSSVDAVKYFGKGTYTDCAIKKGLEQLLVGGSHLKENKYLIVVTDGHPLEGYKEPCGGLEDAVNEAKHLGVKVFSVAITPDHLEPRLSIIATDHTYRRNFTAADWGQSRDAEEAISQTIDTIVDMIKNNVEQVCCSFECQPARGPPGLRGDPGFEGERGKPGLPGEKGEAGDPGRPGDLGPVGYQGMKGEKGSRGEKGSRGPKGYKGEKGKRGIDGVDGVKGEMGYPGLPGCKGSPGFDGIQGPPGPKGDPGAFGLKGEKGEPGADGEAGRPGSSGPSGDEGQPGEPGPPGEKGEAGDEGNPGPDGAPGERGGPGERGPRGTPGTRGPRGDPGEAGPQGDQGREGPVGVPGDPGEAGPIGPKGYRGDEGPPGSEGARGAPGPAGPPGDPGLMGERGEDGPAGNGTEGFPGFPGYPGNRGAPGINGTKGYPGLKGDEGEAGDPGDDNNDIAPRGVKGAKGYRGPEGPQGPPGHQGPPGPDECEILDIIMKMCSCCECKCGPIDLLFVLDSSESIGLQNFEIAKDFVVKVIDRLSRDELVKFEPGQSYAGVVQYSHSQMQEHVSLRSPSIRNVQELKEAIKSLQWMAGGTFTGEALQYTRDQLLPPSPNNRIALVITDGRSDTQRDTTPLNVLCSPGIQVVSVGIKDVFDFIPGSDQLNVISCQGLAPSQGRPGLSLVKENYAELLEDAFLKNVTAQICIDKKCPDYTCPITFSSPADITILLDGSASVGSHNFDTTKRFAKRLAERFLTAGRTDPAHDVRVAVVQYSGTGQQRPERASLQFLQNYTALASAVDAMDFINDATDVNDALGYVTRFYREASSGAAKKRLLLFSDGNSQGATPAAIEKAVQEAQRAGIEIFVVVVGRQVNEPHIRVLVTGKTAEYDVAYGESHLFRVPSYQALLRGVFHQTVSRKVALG
UniProt P12110: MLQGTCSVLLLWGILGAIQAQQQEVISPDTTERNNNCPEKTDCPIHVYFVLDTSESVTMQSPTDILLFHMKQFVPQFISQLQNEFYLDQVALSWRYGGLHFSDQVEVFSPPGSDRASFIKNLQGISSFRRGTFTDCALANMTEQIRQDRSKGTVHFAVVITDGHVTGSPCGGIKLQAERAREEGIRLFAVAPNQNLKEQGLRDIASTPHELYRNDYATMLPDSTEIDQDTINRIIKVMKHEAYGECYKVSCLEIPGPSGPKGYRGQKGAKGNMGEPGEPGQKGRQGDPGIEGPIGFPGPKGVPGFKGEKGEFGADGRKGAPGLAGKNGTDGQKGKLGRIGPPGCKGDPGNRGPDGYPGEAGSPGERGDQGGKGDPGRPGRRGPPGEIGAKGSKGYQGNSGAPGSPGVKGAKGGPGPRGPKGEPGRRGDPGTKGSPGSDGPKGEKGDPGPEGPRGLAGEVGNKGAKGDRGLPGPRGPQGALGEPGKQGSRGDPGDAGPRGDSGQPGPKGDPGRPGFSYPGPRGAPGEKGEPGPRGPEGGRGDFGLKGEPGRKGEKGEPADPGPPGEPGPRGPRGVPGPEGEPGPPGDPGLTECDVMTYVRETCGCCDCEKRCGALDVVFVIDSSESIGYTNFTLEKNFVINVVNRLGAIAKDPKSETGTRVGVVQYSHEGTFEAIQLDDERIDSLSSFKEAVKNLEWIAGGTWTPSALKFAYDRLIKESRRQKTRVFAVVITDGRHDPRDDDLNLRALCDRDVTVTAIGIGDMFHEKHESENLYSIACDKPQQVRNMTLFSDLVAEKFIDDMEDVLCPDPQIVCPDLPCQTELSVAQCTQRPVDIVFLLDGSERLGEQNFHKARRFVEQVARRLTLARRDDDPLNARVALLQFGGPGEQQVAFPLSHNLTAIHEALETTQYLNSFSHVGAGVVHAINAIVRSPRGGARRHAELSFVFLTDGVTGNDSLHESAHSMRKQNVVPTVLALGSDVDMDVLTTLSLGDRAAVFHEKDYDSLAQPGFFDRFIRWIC
UniProt P12111: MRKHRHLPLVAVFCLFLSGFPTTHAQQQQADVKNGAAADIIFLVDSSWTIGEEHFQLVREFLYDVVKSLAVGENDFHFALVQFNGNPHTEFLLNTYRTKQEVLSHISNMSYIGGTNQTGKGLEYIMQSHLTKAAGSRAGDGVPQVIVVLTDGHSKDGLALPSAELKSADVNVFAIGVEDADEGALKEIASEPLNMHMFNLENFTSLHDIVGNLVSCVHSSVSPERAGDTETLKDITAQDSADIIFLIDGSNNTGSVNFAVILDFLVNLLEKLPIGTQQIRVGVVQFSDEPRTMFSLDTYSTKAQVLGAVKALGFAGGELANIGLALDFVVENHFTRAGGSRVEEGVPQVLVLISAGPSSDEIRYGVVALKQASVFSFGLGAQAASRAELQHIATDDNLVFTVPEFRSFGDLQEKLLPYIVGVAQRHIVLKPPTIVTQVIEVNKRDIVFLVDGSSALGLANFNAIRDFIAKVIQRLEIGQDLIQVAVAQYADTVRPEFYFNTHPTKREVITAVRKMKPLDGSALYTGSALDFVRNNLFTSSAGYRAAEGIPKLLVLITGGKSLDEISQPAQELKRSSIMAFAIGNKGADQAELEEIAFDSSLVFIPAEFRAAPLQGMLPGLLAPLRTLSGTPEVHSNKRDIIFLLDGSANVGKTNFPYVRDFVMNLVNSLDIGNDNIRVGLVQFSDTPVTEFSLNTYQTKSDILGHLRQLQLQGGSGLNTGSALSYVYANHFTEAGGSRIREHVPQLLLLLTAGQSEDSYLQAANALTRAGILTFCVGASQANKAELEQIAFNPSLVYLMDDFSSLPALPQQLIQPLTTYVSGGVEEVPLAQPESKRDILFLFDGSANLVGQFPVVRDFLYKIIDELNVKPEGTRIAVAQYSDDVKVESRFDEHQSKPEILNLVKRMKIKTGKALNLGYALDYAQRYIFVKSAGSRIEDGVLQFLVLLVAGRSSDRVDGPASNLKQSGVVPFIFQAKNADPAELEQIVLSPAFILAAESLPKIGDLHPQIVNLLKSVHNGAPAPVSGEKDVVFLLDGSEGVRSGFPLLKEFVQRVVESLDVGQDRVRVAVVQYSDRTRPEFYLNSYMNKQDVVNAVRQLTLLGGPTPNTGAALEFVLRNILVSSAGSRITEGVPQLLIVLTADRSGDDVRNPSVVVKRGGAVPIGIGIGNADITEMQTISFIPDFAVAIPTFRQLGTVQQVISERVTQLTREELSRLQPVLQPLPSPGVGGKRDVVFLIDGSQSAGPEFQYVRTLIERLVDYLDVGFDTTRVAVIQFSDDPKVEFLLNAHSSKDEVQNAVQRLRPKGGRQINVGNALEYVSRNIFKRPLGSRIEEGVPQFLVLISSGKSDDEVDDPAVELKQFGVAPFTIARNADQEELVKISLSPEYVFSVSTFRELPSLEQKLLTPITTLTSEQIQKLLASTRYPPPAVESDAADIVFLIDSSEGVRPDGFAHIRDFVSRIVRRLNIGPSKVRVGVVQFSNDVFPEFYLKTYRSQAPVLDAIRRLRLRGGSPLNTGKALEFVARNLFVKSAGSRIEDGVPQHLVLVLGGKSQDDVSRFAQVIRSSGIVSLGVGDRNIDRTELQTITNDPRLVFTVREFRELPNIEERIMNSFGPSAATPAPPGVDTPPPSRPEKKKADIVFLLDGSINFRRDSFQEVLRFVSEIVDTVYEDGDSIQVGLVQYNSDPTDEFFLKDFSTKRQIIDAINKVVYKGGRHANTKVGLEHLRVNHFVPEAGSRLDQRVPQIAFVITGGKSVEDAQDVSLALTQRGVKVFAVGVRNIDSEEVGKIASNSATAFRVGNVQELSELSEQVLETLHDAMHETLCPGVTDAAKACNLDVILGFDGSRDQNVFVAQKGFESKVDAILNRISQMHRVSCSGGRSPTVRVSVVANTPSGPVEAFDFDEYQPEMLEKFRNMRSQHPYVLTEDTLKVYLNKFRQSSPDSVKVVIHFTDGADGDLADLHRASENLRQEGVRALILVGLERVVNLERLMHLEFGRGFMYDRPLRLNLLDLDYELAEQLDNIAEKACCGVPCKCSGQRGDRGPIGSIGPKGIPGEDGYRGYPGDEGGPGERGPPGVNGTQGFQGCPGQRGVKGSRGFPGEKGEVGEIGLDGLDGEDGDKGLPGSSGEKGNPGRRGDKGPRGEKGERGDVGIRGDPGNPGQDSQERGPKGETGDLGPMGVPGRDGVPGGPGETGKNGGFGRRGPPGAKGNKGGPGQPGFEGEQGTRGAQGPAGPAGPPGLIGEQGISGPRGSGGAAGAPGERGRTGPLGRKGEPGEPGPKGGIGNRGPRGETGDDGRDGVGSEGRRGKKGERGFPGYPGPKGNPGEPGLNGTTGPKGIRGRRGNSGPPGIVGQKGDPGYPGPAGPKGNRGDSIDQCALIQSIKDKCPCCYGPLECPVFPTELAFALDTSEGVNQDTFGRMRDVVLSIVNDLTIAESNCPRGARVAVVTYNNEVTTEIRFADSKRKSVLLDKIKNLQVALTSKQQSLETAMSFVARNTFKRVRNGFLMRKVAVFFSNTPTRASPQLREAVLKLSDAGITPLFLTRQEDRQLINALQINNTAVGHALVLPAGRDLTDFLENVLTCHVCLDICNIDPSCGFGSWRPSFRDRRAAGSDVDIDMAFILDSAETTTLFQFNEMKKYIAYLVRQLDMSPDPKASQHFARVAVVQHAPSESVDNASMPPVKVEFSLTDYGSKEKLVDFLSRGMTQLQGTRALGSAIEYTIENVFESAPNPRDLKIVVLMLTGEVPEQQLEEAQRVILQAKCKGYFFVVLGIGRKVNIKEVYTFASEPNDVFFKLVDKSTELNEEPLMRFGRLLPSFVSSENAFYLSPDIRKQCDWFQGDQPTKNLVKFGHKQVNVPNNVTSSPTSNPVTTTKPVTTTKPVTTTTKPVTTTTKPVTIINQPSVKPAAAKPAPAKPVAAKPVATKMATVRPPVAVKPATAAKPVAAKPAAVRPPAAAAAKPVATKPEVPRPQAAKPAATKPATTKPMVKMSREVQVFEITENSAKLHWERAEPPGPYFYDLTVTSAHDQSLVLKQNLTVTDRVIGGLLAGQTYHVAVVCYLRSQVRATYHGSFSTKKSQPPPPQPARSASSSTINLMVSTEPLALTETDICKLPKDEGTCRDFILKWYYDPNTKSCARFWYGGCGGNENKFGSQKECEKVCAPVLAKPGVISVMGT

B1: WARP, endogenous in human articular cartilage (protein, UniProt Q6PCB0 23-445)
chain: ERGPPASAPRGDLMFLLDSSASVSHYEFSRVREFVGQLVAPLPLGTGALRASLVHVGSRPYTEFPFGQHSSGEAAQDAVRASAQRMGDTHTGLALVYAKEQLFAEASGARPGVPKVLVWVTDGGSSDPVGPPMQELKDLGVTVFIVSTGRGNFLELSAAASAPAEKHLHFVDVDDLHIIVQELRGSILDAMRPQQLHATEITSSGFRLAWPPLLTADSGYYVLELVPSAQPGAARRQQLPGNATDWIWAGLDPDTDYDVALVPESNVRLLRPQILRVRTRPGEAGPGASGPESGAGPAPTQLAALPAPEEAGPERIVISHARPRSLRVSWAPALGSAAALGYHVQFGPLRGGEAQRVEVPAGRNCTTLQGLAPGTAYLVTVTAAFRSGRESALSAKACTPDGPRPRPRPVPRAPTPGTASREP
- binding [1]: binds
- binding [2]: binds
